Assay results: article PMC11549326
These are yes or no findings as the source states them, for the method shown. Binding seen in cells or lysates may run through a third protein. Some binding calls cover weakened binding; strength is not graded here.

Amino acid sequences for entries named in this document (tags omitted).
UniProt Q01815: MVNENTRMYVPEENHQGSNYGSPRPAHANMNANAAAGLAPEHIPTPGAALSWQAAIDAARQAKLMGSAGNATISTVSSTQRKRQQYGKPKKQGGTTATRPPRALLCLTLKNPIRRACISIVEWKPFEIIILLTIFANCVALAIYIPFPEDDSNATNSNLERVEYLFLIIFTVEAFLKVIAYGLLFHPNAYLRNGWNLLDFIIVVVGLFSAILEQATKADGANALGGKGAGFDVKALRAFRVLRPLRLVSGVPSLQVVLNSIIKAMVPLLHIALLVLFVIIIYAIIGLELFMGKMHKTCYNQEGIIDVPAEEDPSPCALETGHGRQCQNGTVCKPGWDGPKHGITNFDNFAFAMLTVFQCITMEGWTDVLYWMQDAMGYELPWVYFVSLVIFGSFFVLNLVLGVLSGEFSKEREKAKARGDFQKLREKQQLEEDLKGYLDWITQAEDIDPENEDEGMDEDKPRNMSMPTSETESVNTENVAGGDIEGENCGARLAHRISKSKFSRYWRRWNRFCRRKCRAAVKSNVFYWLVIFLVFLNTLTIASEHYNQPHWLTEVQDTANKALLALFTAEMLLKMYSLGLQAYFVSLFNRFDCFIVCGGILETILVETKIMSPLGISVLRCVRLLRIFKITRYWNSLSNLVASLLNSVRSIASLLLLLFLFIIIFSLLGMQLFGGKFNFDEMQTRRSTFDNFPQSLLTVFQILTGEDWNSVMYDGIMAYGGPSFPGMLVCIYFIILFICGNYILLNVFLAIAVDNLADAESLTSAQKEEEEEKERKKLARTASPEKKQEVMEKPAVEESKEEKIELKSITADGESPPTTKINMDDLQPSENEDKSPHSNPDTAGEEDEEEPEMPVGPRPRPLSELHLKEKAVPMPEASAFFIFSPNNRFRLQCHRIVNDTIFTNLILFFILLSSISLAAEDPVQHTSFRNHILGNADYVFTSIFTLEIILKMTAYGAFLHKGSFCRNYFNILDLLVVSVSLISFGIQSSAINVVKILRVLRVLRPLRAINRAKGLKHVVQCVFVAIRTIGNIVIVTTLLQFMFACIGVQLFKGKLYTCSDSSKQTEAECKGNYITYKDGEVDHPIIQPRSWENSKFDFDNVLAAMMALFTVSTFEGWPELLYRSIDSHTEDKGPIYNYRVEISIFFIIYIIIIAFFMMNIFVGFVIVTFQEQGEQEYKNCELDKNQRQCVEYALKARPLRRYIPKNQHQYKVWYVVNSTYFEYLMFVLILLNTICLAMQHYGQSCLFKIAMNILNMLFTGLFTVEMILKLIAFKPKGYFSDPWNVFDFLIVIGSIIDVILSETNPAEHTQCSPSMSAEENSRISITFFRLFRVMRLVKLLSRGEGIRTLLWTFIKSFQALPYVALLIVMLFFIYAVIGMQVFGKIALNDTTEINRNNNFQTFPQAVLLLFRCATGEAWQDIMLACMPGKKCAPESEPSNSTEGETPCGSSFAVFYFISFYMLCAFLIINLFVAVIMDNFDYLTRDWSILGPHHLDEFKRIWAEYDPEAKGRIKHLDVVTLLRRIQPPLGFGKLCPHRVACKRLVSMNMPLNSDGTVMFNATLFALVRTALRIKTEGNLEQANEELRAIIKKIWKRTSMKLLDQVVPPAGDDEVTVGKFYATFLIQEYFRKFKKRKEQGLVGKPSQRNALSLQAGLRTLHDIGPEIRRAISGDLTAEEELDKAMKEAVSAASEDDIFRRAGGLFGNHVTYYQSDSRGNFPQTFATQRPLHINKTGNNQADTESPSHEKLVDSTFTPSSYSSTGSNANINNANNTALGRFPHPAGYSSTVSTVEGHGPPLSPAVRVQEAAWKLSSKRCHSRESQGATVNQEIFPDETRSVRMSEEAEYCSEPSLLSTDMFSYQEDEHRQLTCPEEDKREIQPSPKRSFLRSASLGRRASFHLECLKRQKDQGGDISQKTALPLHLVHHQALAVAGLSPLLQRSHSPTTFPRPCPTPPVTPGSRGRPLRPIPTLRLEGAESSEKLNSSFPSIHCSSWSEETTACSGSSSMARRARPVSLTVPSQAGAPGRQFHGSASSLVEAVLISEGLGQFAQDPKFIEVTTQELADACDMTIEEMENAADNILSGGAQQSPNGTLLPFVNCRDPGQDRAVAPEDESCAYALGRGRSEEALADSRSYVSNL

Assays:
Experiment in all cases: co-IP; vesicle IP of MIN6 postnuclear fractions (10 mM HEPES pH 7.4, 150 mM NaCl, 0.1% Triton X-100) on protein A beads with anti-CaV1.2, anti-Kir6.2 or anti-STIP1 antibody or normal rabbit IgG, immunoblotting; cells transduced with scrambled-control or KIF5B-knockdown miRNA for 6 days and treated with 10 uM MG-132 for 6 h; also non-transduced against KIF5B- and Hsc70-overexpressing cells
[1] = target: T1, KATP channel subunit Kir6.2 (mouse (endogenous in MIN6)) (UniProt Q61743)
T1 sequence: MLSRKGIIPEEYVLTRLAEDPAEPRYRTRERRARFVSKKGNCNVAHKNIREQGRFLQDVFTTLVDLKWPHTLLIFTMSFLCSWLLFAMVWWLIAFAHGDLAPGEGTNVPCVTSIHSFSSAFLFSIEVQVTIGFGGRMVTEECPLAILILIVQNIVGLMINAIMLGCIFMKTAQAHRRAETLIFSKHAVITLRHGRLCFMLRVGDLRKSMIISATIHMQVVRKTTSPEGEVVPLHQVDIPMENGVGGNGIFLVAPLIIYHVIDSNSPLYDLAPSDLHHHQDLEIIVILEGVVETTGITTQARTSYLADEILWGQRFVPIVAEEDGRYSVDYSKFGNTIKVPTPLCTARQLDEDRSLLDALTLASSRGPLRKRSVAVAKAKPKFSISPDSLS

[2] = target: voltage-gated calcium channel CaV1.2 (mouse (endogenous in MIN6 and in mouse primary beta cells)) (UniProt Q01815)
[3] = target: voltage-gated calcium channel CaV1.2 (mouse (endogenous in MIN6 and in mouse primary beta cells)), Q01815; conditions: remark: other sources report otherwise

Binder	binding [1]	binding [2]	binding [3]
calnexin-1 (protein, UniProt P35564 21-591) HDGHDDDAIDIEDDLDDVIEEVEDSKSKSDASTPPSPKVTYKAPVPTGEVYFADSFDRGSLSGWILSKAKKDDTDDEIAKYDGKWEVDEMKETKLPGDKGLVLMSRAKHHAISAKLNKPFLFDTKPLIVQYEVNFQNGIECGGAYVKLLSKTAELSLDQFHDKTPYTIMFGPDKCGEDYKLHFIFRHKNPKTGVYEEKHAKRPDADLKTYFTDKKTHLYTLILNPDNSFEILVDQSVVNSGNLLNDMTPPVNPSREIEDPEDRKPEDWDERPKIADPDAVKPDDWDEDAPSKIPDEEATKPEGWLDDEPEYIPDPDAEKPEDWDEDMDGEWEAPQIANPKCESAPGCGVWQRPMIDNPNYKGKWKPPMIDNPNYQGIWKPRKIPNPDFFEDLEPFKMTPFSAIGLELWSMTSDIFFDNFIISGDRRVVDDWANDGWGLKKAADGAAEPGVVLQMLEAAEERPWLWVVYILTVALPVFLVILFCCSGKKQSNAMEYKKTDAPQPDVKDEEGKEEEKNKRDEEEEEEKLEEKQKSDAEEDGVTGSQDEEDSKPKAEEDEILNRSPRNRKPRRE	binds weakly	binds	
derlin-1 (protein, UniProt Q99J56 1-251) MSDIGDWFRSIPAITRYWFAATVAVPLIGKLGIISPAYFFLWPEAFLYRFQIWRPFTATFYFPVGPGTGFLYLVNLYFLYQYSTRLEAGAFDGRPADYLFMLLFNWICIVITGLAMDMQLLMIPLIMSVLYVWAQLNRDLIVSFWFGTRFKACYLPWVILGFNYIIGGSVINELIGNLVGHLYFFLMFRYPMDLGGRNFLSTPQFLYRWLPSRRGGVSGFGVPPASMRRAADQNGGGGRHNWGQGFRLGDQ	binds weakly		
derlin-1, Q99J56 1-251 (protein) MSDIGDWFRSIPAITRYWFAATVAVPLIGKLGIISPAYFFLWPEAFLYRFQIWRPFTATFYFPVGPGTGFLYLVNLYFLYQYSTRLEAGAFDGRPADYLFMLLFNWICIVITGLAMDMQLLMIPLIMSVLYVWAQLNRDLIVSFWFGTRFKACYLPWVILGFNYIIGGSVINELIGNLVGHLYFFLMFRYPMDLGGRNFLSTPQFLYRWLPSRRGGVSGFGVPPASMRRAADQNGGGGRHNWGQGFRLGDQ			binds
